{
  "sequences": {"note": "Amino acid sequences for entries named in this document (tags omitted).", "UniProt P09471, whole entry, looked up": "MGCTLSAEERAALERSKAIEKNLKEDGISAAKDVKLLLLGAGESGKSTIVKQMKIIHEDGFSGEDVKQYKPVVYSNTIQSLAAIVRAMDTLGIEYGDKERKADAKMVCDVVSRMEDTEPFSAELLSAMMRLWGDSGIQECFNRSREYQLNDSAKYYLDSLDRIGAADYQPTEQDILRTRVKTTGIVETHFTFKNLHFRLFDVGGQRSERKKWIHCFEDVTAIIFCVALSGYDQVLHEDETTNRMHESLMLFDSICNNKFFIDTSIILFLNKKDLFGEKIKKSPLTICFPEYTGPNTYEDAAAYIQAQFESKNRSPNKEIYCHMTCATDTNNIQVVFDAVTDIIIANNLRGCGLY"},
  "source": "PubChem BioAssay AID1439",
  "about": "(NMMLSC, 2008)",
  "note": "Screen size: about 220,000 compounds; about 770 (0.35%) were called active. The shares of active, inactive and inconclusive entries below differ from those in the screen. Rule as the data show it: active = binding response below about 49% or above about 150%; inconclusive = no clear call, values can overlap the other calls; inactive = in between.",
  "data": [
    {"biological_target": "Guanine nucleotide-binding protein G(o) subunit alpha (Homo sapiens) (UniProt P09471)", "assay": "RGS7-Galphao binding modulators, primary screen, biochemical, multiplexed bead flow cytometry (AID 1439);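 also: fluorescent Galphao held in activated GDP-AlF4 state binding bead-coupled RGS7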", "details": "at 10 µM, actives lie on both sides", "values": [
      {"smiles": "NS(=O)(=O)c1cccc(NC(=O)CSc2nnc(-c3ccccc3F)n2C2CC2)c1", "binding response (% of control)": "inconclusive: 124%"},
      {"smiles": "CC(C)COC(=O)n1c(=O)oc2ccc(S(=O)(=O)N3CCCCC3)cc21", "binding response (% of control)": "inconclusive: 93.9%"},
      {"smiles": "Cc1ccccc1N(CC(=O)NC1CCCC1)C(=O)c1csnn1", "binding response (% of control)": "inconclusive: 104%"},
      {"smiles": "N#Cc1ccc(-c2cccnc2)nc1SCC(=O)c1ccccc1", "binding response (% of control)": "inconclusive: 278%"},
      {"smiles": "COc1ccc(-n2c(NN)nc3sc4c(c3c2=O)CCCC4)cc1", "binding response (% of control)": "inconclusive: 89%"},
      {"smiles": "O=[N+]([O-])c1cnc2nc(-c3ccncc3)nn2c1O", "binding response (% of control)": "inconclusive: 90.7%"},
      {"smiles": "Cc1nn(-c2ccccc2)c(Cl)c1/C=N/NC(=O)c1ccc(NS(=O)(=O)c2cccs2)cc1", "binding response (% of control)": "inconclusive: 134%"},
      {"smiles": "NS(=O)(=O)c1ccc(CCNS(=O)(=O)c2cccc(C(=O)O)c2)cc1", "binding response (% of control)": "inconclusive: 303%"},
      {"smiles": "N#CCC(=O)c1ccccc1Oc1ccc(Cl)cc1", "binding response (% of control)": "inconclusive: 98.6%"},
      {"smiles": "Cn1nc(C(C)(C)C)c([N+](=O)[O-])c1C(=O)Nc1ccc(Br)cc1", "binding response (% of control)": "inconclusive: 262%"},
      {"smiles": "Cc1ccc(S(=O)(=O)N(C)C)cc1NC(=O)COC(=O)c1ccc2c(c1)OCCO2", "binding response (% of control)": "inactive: 93.9%"},
      {"smiles": "Cc1[nH][nH]c(=O)c1/C=N/N1CCOCC1", "binding response (% of control)": "inconclusive: 105%"},
      {"smiles": "CCCC12CN3CC(CCC)(CN(C1)C3c1ccco1)C2=O", "note": "(configuration not stated)", "binding response (% of control)": "inconclusive: 98.6%"},
      {"smiles": "COc1ccc2nc3cc(Cl)ccc3c(C#N)c2c1", "binding response (% of control)": "inconclusive: 113%"},
      {"smiles": "CCC(C)Sc1cc(C(F)(F)F)c(C(=O)Nc2ccc(Cl)cc2)cn1", "note": "(configuration not stated)", "binding response (% of control)": "inconclusive: 188%"},
      {"smiles": "CC1(C)[C@H]2CC[C@]1(C)[C@@H](OC(=O)C[N+]1(C)CCOCC1)C2", "binding response (% of control)": "inconclusive: 89%"},
      {"smiles": "CC(=O)NC(Cc1c[nH]c2ccccc12)C(=O)OCC(=O)N1CCCCCC1", "note": "(configuration not stated)", "binding response (% of control)": "inactive: 97.3%"},
      {"smiles": "O=C(CSc1nc(-c2ccc(F)cc2)nc2c1Cc1ccccc1O2)Nc1ccc(C(=O)O)cc1", "binding response (% of control)": "inconclusive: 112%"},
      {"smiles": "COc1ccc(C)c(-n2c(N)cc(=O)n(Cc3ccccc3)c2=O)c1", "binding response (% of control)": "inconclusive: 83.4%"},
      {"smiles": "CCOc1ccc(CCNC(=O)COC(=O)c2ccc(OC)c(OC)c2OC)cc1OCC", "binding response (% of control)": "inconclusive: 104%"},
      {"smiles": "CN1C(C(=O)NCc2cccc(Br)c2)CC2Cn3c(nc4ccccc43)C21", "note": "(configuration not stated)", "binding response (% of control)": "inconclusive: 101%"},
      {"smiles": "COc1cc(/C=N/NC(=O)c2sc3nc(C)cc(C)c3c2N)ccc1O", "binding response (% of control)": "inconclusive: 105%"},
      {"smiles": "CC1CN(CC(O)COC2CCC(C(C)(C)C)CC2)CC(C)O1", "note": "(configuration not stated)", "binding response (% of control)": "inconclusive: 90.3%"},
      {"smiles": "CCOC(=O)N1CCC(NC(=O)C2CCN(C(=O)c3cc4sccc4n3CC)CC2)CC1", "binding response (% of control)": "inconclusive: 156%"},
      {"smiles": "CCCCOC(=O)c1sc2nc(C)cc(C)c2c1N", "binding response (% of control)": "inconclusive: -98.7%"},
      {"smiles": "CN(C)CCNC(=O)C(=O)NCC1OCCN1S(=O)(=O)c1ccc2c(c1)OCCO2", "note": "(configuration not stated)", "binding response (% of control)": "inconclusive: 102%"},
      {"smiles": "CCOC(=O)C1=C(C)C/C(=N\\NC(=O)c2ccccc2O)CC1", "binding response (% of control)": "inconclusive: -298%"},
      {"smiles": "CCCOc1ccc(S(=O)(=O)N2C(=O)CC(=O)N(Cc3ccc(OCC)cc3)C2=O)cc1", "binding response (% of control)": "inconclusive: 175%"},
      {"smiles": "N#Cc1ccc(Sc2ccccn2)c([N+](=O)[O-])c1", "binding response (% of control)": "inconclusive: 75.3%"},
      {"smiles": "Cc1ccc(N=Nc2c(O)ccc3n[nH]nc23)cc1", "binding response (% of control)": "inconclusive: -34%"},
      {"smiles": "COc1ccccc1NC(=O)CN1CC(=O)Nc2ccccc21", "binding response (% of control)": "inactive: 104%"},
      {"smiles": "CCOc1ccc(Nc2nc(NCc3ccco3)nc(N)c2[N+](=O)[O-])cc1", "binding response (% of control)": "inconclusive: 301%"},
      {"smiles": "O=C(COC(=O)c1cc(S(=O)(=O)N2CCCCC2)ccc1N1CCOCC1)NCCc1ccc(F)cc1", "binding response (% of control)": "inactive: 99.6%"},
      {"smiles": "O=C(CCNS(=O)(=O)c1ccc(Cl)cc1)OCC(=O)c1ccc[nH]1", "binding response (% of control)": "inconclusive: -51.8%"},
      {"smiles": "CCCN(CC(=O)Nc1ccccc1C)C(=O)CCl", "binding response (% of control)": "inactive: 105%"},
      {"smiles": "Cc1cc(C(=O)OCC(=O)NC2CCCCC2)c(C)o1", "binding response (% of control)": "inactive: 99.8%"},
      {"smiles": "Cc1ccc(N2CCN(C(=S)c3ccc(-c4ccccc4[N+](=O)[O-])o3)CC2)cc1", "binding response (% of control)": "inconclusive: 70.8%"},
      {"smiles": "COc1ccccc1C1CCN(c2ccc([N+](=O)[O-])c(OC)c2)CC1", "binding response (% of control)": "inconclusive: 110%"},
      {"smiles": "Clc1nc(Oc2ccccc2)nc(-c2cn(-c3ccccc3)c3ccccc23)n1", "binding response (% of control)": "inconclusive: 114%"},
      {"smiles": "COc1ccc(CNC(=O)Nc2cc(C)cc(C)c2)cc1", "binding response (% of control)": "inconclusive: -859%"},
      {"smiles": "O=C(O)c1ccc2ncsc2c1", "binding response (% of control)": "inconclusive: 113%"},
      {"smiles": "COc1ccc(CCNCc2ccc(OCC(=O)N3CCCCC3)c(OC)c2)cc1OC", "binding response (% of control)": "inactive: 103%"},
      {"smiles": "O=[N+]([O-])c1cccc(CSc2ncnc3ccccc23)c1", "binding response (% of control)": "inconclusive: 97%"},
      {"smiles": "Cc1nnc(NC(=O)CSc2nnc(CCc3nc4ccccc4[nH]3)n2C)s1", "binding response (% of control)": "inactive: 97.2%"},
      {"smiles": "COC(=O)c1cc(OC)nc(OC)c1", "binding response (% of control)": "inconclusive: 124%"},
      {"smiles": "CCOC(=O)N1CCN(C(=O)c2cccn3c(=O)c4c5c(sc4nc23)CCCC5)CC1", "binding response (% of control)": "inconclusive: 82.9%"},
      {"smiles": "NC(=O)CCCc1nc(-c2ccccc2)no1", "binding response (% of control)": "inconclusive: 869%"},
      {"smiles": "CC(C)NC(=O)CSc1nc(N)c(-c2ccccc2)c(=O)[nH]1", "binding response (% of control)": "inconclusive: 108%"},
      {"smiles": "O=C(CSc1nnnn1-c1ccccc1)Nc1ncc2c(n1)CC(c1ccco1)CC2=O", "note": "(configuration not stated)", "binding response (% of control)": "active: 39.4%"},
      {"smiles": "CCCCCCc1cc2cc(C(=O)OCC)c(=O)oc2cc1O", "binding response (% of control)": "inconclusive: 123%"},
      {"smiles": "Cc1cc(O)c(/C=N/OCc2ccc(Cl)cc2Cl)c(=O)o1", "binding response (% of control)": "inconclusive: 94.5%"},
      {"smiles": "CCC/C(O)=C1\\C(=O)CCCC1=NCCc1c(C)[nH]c2ccc(C)cc12", "binding response (% of control)": "inconclusive: 88.1%"},
      {"smiles": "O=C(NCC1CCCO1)c1ccccc1-c1nc(-c2ccccc2Cl)no1", "note": "(configuration not stated)", "binding response (% of control)": "inconclusive: 45.4%"},
      {"smiles": "Cc1cccc(C(=O)OCC(=O)NCC(C)C)c1O", "binding response (% of control)": "inconclusive: 80.4%"},
      {"smiles": "COC(=O)c1ccccc1NC(=O)Cn1c(=O)n(CCC(=O)NC2CCN(Cc3ccccc3)CC2)c(=O)c2ccccc21", "binding response (% of control)": "inconclusive: 139%"},
      {"smiles": "Cc1cc2c(NC(=O)CC(C)(C)CC(=O)O)cccc2nn1", "binding response (% of control)": "inconclusive: 98.2%"},
      {"smiles": "O=C(NC(=S)Nc1ccc2oc(-c3ccncc3)nc2c1)c1ccccc1F", "binding response (% of control)": "inconclusive: 71.7%"}
    ]}
  ]
}
